Laboratory results taken from patent US8796336B2, “Methoxypolyethylene glycol chelate and uses thereof” (Eastern Virginia Medical School, priority 2006, dated 2014).
For at least one compound, name, drawing or mass did not settle the structure.

Test system: intraocular pressure (IOP)
Assay: Topical application for IOP measurements on rat surgical glaucoma (ocular hypertensive) model
Assay type: in vivo, male SpragueDawley rats
Details: topical 10 mM or 87 mM
Procedure: Ocular hypertension was induced in 9 male SpragueDawley rats, weighing between 400 to 500 grams. Under general anesthesia with acepromazine maleate (12 mg/Kg) and ketamine (80 mg/Kg), IP, and topical proparacaine (0.5%), dissection of the conjunctiva was made with fine cuts. To reduce the stimulus for revascularization or neovascularization, dissection of the right eye was limited to the area immediately surrounding the vortex veins. Three of four vortex veins were exposed and ligated using 9.0 nylon sutures. Criterion for inclusion into the study was an intraocular pressure (IOP) increase of 5 mm Hg or more when compared to […] baseline IOP. Within 6 weeks, the IOP of all the operated eyes increased at least 5 mm Hg compared to baseline. National Institutes of Health Guidelines and Association for Research in Vision and Ophthalmology statement for the Use and Care of Animals were followed in this study.
Prior to initiation of treatment, baseline IOP was obtained in glaucoma rat models. IOP was measured via a specially modified Goldmann applanation tonometer (HAAG-STREIT, Bern, Switzerland) under sedation. Measurements are averages of two consecutive readings and were made at the same time of day and by the same observers.
Rats were treated topically with 20 μl of MP compounds (0.3-100 mM; n=3-6) on the operated eyes. […]

## NCCCNCCSP(=O)(O)O [amifostine, S-2-[3-aminopropylamino]ethylphosphorothioate]
  IOP reduction: No reduction in IOP
